These results are taken from paper doi:10.1101/069187.

Chains of the proteins cited; added tags and fusions are not shown. Residues count along the entry.
UniProt P02545, residues 1-646: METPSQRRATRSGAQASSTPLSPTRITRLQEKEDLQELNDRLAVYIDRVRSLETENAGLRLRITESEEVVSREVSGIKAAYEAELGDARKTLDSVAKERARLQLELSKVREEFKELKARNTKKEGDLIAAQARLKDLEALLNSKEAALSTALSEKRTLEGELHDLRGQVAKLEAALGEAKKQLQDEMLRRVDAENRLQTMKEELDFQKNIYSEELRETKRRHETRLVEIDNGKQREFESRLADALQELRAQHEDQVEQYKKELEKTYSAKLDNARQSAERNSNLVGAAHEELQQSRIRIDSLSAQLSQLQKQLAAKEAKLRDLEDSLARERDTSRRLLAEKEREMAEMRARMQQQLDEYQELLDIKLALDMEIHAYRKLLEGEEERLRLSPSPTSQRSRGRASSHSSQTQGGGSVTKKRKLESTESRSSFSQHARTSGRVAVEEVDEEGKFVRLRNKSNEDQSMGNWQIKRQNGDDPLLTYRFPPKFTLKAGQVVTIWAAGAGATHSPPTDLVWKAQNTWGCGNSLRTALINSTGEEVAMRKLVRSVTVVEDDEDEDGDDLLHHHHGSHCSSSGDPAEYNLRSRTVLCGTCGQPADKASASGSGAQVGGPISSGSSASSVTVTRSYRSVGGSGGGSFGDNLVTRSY
UniProt P12956: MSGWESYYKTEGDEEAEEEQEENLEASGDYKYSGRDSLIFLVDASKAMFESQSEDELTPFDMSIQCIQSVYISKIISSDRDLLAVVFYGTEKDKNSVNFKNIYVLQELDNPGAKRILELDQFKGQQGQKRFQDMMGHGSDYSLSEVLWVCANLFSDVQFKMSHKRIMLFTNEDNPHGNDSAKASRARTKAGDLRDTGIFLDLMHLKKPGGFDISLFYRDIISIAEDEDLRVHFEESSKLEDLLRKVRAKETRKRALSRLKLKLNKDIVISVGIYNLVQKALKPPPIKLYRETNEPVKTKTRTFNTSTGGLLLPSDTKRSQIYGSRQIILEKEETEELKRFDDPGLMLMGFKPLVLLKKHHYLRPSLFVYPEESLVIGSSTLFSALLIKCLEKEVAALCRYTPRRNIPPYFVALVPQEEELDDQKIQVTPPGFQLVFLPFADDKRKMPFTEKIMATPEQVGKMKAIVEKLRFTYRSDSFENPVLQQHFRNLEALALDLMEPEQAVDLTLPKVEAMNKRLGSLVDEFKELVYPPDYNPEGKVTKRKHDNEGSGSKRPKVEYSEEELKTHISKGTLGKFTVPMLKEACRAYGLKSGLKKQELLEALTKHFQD
UniProt P13010: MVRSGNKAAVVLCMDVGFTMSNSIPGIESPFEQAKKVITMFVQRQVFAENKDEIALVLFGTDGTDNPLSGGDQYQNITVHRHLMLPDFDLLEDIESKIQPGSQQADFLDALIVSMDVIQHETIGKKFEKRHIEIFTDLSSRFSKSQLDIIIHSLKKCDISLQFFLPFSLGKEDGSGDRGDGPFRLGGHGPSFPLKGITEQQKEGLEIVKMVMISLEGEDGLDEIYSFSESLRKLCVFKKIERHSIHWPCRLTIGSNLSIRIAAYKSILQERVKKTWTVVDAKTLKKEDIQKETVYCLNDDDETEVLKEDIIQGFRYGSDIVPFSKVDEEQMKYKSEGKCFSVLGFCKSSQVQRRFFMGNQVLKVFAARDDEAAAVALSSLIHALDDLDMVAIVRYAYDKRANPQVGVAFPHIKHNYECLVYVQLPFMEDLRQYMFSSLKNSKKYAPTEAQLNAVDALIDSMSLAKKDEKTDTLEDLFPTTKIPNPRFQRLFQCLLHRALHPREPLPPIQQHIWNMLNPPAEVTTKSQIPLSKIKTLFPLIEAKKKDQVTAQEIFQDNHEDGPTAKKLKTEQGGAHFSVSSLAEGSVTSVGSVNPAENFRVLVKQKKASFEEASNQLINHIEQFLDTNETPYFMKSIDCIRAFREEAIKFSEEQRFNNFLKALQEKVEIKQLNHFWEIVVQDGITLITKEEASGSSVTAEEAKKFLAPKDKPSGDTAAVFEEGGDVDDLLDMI
UniProt P11142: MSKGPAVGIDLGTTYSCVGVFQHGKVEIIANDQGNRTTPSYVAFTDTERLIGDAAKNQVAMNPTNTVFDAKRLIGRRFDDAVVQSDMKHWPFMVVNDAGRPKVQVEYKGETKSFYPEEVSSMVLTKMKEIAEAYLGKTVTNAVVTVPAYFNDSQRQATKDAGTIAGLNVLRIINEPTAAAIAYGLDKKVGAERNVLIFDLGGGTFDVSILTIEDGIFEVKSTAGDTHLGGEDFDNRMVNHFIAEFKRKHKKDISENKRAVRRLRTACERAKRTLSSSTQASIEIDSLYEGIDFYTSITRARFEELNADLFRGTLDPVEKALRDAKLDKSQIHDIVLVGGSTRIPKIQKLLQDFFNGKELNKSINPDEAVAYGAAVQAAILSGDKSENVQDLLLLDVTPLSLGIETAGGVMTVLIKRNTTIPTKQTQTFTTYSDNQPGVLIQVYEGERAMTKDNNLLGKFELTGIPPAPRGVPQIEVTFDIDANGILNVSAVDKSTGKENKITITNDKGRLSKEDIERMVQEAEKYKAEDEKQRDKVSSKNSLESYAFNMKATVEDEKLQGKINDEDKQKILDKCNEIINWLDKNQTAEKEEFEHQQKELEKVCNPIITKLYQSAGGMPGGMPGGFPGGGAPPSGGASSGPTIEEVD
UniProt Q03135: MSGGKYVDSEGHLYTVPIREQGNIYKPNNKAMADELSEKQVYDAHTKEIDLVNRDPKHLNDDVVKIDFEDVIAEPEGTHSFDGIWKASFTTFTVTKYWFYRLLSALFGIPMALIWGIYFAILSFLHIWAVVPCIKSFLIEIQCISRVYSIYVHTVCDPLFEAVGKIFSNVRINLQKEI

Test in all cases: proximity labelling
Test [1] addresses lamin A/C (human (endogenous in HeLa, primary human tissue and fibroblasts)) (UniProt P02545).
Test [2] has as its target T1, α-sarcoglycan (not stated (primary skeletal muscle; human and mouse tissue were used)) (UniProt Q16586).
T1 sequence: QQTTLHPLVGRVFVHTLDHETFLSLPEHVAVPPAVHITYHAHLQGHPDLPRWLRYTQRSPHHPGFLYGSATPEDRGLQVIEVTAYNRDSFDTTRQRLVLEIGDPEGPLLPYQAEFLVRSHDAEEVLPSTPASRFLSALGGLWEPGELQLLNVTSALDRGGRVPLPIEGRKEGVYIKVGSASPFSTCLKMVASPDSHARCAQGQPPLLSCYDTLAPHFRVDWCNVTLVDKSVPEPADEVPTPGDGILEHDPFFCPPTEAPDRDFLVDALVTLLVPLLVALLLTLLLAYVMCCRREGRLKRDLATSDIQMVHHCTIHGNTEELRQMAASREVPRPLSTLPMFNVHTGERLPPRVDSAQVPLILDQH

The target in the next test is GFP-LMNA (UniProt P02545).
In test [3] the target is lamin A/C (human (endogenous in HeLa, primary human tissue and fibroblasts)) (UniProt P02545). The source holds these as a separate data set.

Read-outs that look alike come from different tables or passages of the source. No constants are given. Whether binding was seen depends on the method and setting. Binding seen in cells or lysates may run through a third protein. Here binding means that the protein was enriched with, or labelled near, the bait; the list need not be complete.

Consider nesprin-2 (from UniProt Q8WXH0 1-6885), for which, in test [1], the binding entry is on record as “binds”.
Regarding lamin A/C (from UniProt P02545 1-646), the binding result in test [2] is recorded as “binds”.
With Ku70 (from UniProt P12956 1-609), the binding entry (in test [1]; in the test with GFP-LMNA) was “binds” each time.
Consider Ku80 (from UniProt P13010 1-732), for which the binding entry (in test [1]; with GFP-LMNA) was “binds” throughout.
Take nesprin-1 (from UniProt Q8NF91 1-8797): the binding result in test [1] and in test [3] was “binds” throughout.
Consider HSPA8 (from UniProt P11142 1-646), for which, in test [1], the binding entry was “binds”.
As to caveolin-1 (from UniProt Q03135 1-178), the binding entry in test [1] and in test [3] was “binds” throughout.

B1: Muscular LMNA-interacting protein (protein, UniProt Q5VWP3 1-993)
chain: MLSEQGLLSDCGNNYFQMTSCILSGSIQTTPQVSAGGSEAKPLIFTFVPTVRRLPTHTQLADTSKFLVKIPEESSDKSPETVNRSKSNDYLTLNAGSQQERDQAKLTCPSEVSGTILQEREFEANKLQGMQQSDLFKAEYVLIVDSEGEDEAASRKVEQGPPGGIGTAAVRPKSLAISSSLVSDVVRPKTQGTDLKTSSHPEMLHGMAPQQKHGQLTSSPTTSEQLACKPPAFSFVSPTNPNTPPDPVNLEGASVLEEFHTRRLDVGGAVVEESATYFQTTAHSTPFSASKGTSSTLLFPHSTQLSGSNLPSSTAADPKPGLTSEVLKKTTLTSHVLSHGESPRTSSSPPSSSASLKSNSASYIPVRIVTHSLSPSPKPFTSSFHGSSSTICSQMSSSGNLSKSGVKSPVPSRLALLTAILKSNPSHQRPFSPASCPTFSLNSPASSTLTLDQKEKQTPPTPKKSLSSCSLRAGSPDQGELQVSELTQQSFHLPVFTKSTPLSQAPSLSPTKQASSSLASMNVERTPSPTLKSNTMLSLLQTSTSSSVGLPPVPPSSSLSSLKSKQDGDLRGPENPRNIHTYPSTLASSALSSLSPPINQRATFSSSEKCFHPSPALSSLINRSKRASSQLSGQELNPSALPSLPVSSADFASLPNLRSSSLPHANLPTLVPQLSPSALHPHCGSGTLPSRLGKSESTTPNHRSPVSTPSLPISLTRTEELISPCALSMSTGPENKKSKQYKTKSSYKAFAAIPTNTLLLEQKALDEPAKTESVSKDNTLEPPVELYFPAQLRQQTEELCATIDKVLQDSLSMHSSDSPSRSPKTLLGSDTVKTPTTLPRAAGRETKYANLSSPSSTVSESQLTKPGVIRPVPVKSRILLKKEEEVYEPNPFSKYLEDNSDLFSEQDVTVPPKPVSLHPLYQTKLYPPAKSLLHPQTLSHADCLAPGPFSHLSFSLSDEQENSHTLLSHNACNKLSHPMVAIPEHEALDSKEQ
Turning to B1, the binding result in test [3] is recorded as “binds”.

B2: lamin B2 (protein, UniProt Q03252 1-620)
chain: MSPPSPGRRREQRRPRAAATMATPLPGRAGGPATPLSPTRLSRLQEKEELRELNDRLAHYIDRVRALELENDRLLLKISEKEEVTTREVSGIKALYESELADARRVLDETARERARLQIEIGKLRAELDEVNKSAKKREGELTVAQGRVKDLESLFHRSEVELAAALSDKRGLESDVAELRAQLAKAEDGHAVAKKQLEKETLMRVDLENRCQSLQEELDFRKSVFEEEVRETRRRHERRLVEVDSSRQQEYDFKMAQALEELRSQHDEQVRLYKLELEQTYQAKLDSAKLSSDQNDKAASAAREELKEARMRLESLSYQLSGLQKQASAAEDRIRELEEAMAGERDKFRKMLDAKEQEMTEMRDVMQQQLAEYQELLDVKLALDMEINAYRKLLEGEEERLKLSPSPSSRVTVSRATSSSSGSLSATGRLGRSKRKRLEVEEPLGSGPSVLGTGTGGSGGFHLAQQASASGSVSIEEIDLEGKFVQLKNNSDKDQSLGNWRIKRQVLEGEEIAYKFTPKYILRAGQMVTVWAAGAGVAHSPPSTLVWKGQSSWGTGESFRTVLVNADGEEVAMRTVKKSSVMRENENGEEEEEEAEFGEEDLFHQQGDPRTTSRGCYVM
With B2, in test [3], the binding entry is “binds”.
